{
  "source": "PubChem BioAssay AID1347423",
  "about": "(Functional Genomics Laboratory (NCATS/FGL), 2020)",
  "note": "The campaign covered roughly 52,000 sequences. About 210 (0.4%) were called active.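 Rule for the calls: active = gene whose silencing raises cell survival under the drug, median off-target-corrected z-score across its silencing RNAs 2 or more; inactive = the rest.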 The list shows a part of the results.",
  "data": [
    {"test": "Resistance to Poly (ADP-Ribose) Polymerase inhibitor: Gene Identification via Genome-wide siRNA Screen", "details": "mouse BRCA2 R2336H ES cells, olaparib, CellTiter-Glo viability; active compounds read high", "in_short": "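Genome-wide siRNA screen (3 siRNAs/gene, 20 nM) in mouse ES cells carrying hypomorphic BRCA2 R2336H; olaparib 500 nM added 48 h post-transfection, CellTiter-Glo viability 72 h later. Normalized to plate-median negative control; MAD z-scores, gene median, seed-adjusted.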", "values": [
      {"sequence": "CCAUCUAAAGGCAUGCAAGTT against Cmah", "z-score": "inactive: 1.49"},
      {"sequence": "GGUGUUUGAUAAUGAAGAGTT against Dnahc1", "z-score": "inactive: -0.421"},
      {"sequence": "GCCAAUAUAGGUUUUAGGUTT against Serpinb6b", "z-score": "inactive: 0.596"},
      {"sequence": "GGAGAUACAUUGGUAGGUATT against Idua", "z-score": "inactive: -0.889"},
      {"sequence": "GGAUCAAUCAUGCAUCCAUTT against Lipc", "z-score": "inactive: -0.902"},
      {"sequence": "GGAACACAAAGGUAAGAAATT against Raf1", "z-score": "inactive: 0.462"},
      {"sequence": "GGCGUACAGUAUUUCCUACTT against Il17d", "z-score": "inactive: 0.292"},
      {"sequence": "GGCUUCAUAAGAUCAAAGATT against 4921526F01Rik", "z-score": "inactive: -0.865"},
      {"sequence": "GCAUUAAGGUCUUACUCCATT against Rufy1", "z-score": "inactive: 0.172"},
      {"sequence": "GCAUGAACUUACCCUAUUATT against V1rh21", "z-score": "inactive: -1.38"},
      {"sequence": "CGCGGAGGACUACAAUGAGTT against Katnb1", "z-score": "inactive: -0.254"},
      {"sequence": "GGUGCUUUAUUCAUAAAGATT against Gprc5b", "z-score": "inactive: 0.749"},
      {"sequence": "CCUAAUUGAAAUCAGCAGUTT against Hip1r", "z-score": "inactive: 0.325"},
      {"sequence": "GGCUCAGAUCUUUGACUACTT against Pnp", "z-score": "inactive: 0.273"},
      {"sequence": "CCCAGAUUACCGUAAGCGATT against Jup", "z-score": "inactive: -0.124"},
      {"sequence": "CCUGAUUGUGUGUUCAUAATT against D5Bwg0834e", "z-score": "inactive: -2.41"},
      {"sequence": "CGGGAAGUAAACAUUUCCATT against Rassf6", "z-score": "inactive: -0.0315"},
      {"sequence": "GCCUUGAUACAGAACAUGATT against E330040A16Rik", "z-score": "inactive: -1.78"},
      {"sequence": "GGAAGAUUAAAGGACAGUATT against D17Wsu94e", "z-score": "inactive: -1.14"},
      {"sequence": "GCUGACCAGUAAGUUGUAUTT against Zswim5", "z-score": "inactive: 0.142"},
      {"sequence": "GGUCUCAGCAAUCUGUUCCTT against 1700029I15Rik", "z-score": "inactive: -3.14"},
      {"sequence": "GGAUUGUCCUUCGACUACGTT against Itgb3", "z-score": "inactive: -0.303"},
      {"sequence": "CCAGUGCCUAUUAAAAUGCTT against Sox30", "z-score": "inactive: 1.35"},
      {"sequence": "GCUGUCCUUCUAUAACCCATT against A930004K21Rik", "z-score": "inactive: -0.507"},
      {"sequence": "GCUACAGUGGGACUUAGGATT against E130112L23Rik", "z-score": "inactive: 0.368"},
      {"sequence": "GGCUCAGCUUUUCUGUCAUTT against Cd200r3", "z-score": "inactive: 0.843"},
      {"sequence": "GCUGGAGACAUUCGGUGAUTT against BC060267", "z-score": "inactive: -0.581"},
      {"sequence": "GGUUCCUGAAAUCAAAUAUTT against Rgs1", "z-score": "inactive: -1.53"},
      {"sequence": "GGAAUAGUAGCAAAACAGATT against Ppm1l", "z-score": "inactive: 0.0896"},
      {"sequence": "GCAGUACAUAGACAAGUUATT against 0610010D24Rik", "z-score": "inactive: -0.631"},
      {"sequence": "GGUAGAAAGUAACAGGAAGTT against Adhfe1", "z-score": "inactive: -0.842"},
      {"sequence": "GCGAAUCAUGAAAUACCAGTT against D10Ertd610e", "z-score": "inactive: -0.31"},
      {"sequence": "GCAAGCAACGGUCAUUCUCTT against 8430417G17Rik", "z-score": "inactive: 0.175"},
      {"sequence": "GGUUAAUAGCAACAACCAGTT against Kifc3", "z-score": "inactive: 1.06"},
      {"sequence": "GGUACAAAAGUUAAAGAGATT against Uchl5", "z-score": "inactive: 1.2"},
      {"sequence": "GGUCUUUAGAAUUAGGCUCTT against Pml", "z-score": "inactive: 0.0668"},
      {"sequence": "GCACGAGUAUGUUUGACAUTT against 3732412D22Rik", "z-score": "inactive: -0.375"},
      {"sequence": "CGGCUUUGAAGUGGUGUAUTT against Smad9", "z-score": "inactive: 0.09"},
      {"sequence": "AAGCGGAACUUCAGUAGCGTT against D11Bwg0280e", "z-score": "inactive: 2.74"},
      {"sequence": "GCUCGGUUUACUUAAAGUGTT against Alg2", "z-score": "inactive: 0.892"},
      {"sequence": "CCAGAUAUGCACAUGAUAUTT against 4732415M23Rik", "z-score": "inactive: -0.882"},
      {"sequence": "CGAGGGAGACGAAAUUGUCTT against 1810014F10Rik", "z-score": "inactive: -1.31"},
      {"sequence": "GGACUCUCUUCUGGCAUCUTT against Bapx1", "z-score": "inactive: 0.458"},
      {"sequence": "GGAACAUUCCAGAAUAUCATT against Gm711", "z-score": "inactive: 0.106"},
      {"sequence": "GGCUUUGUAUCCUUAUGUATT against BC035291", "z-score": "inactive: -0.703"},
      {"sequence": "GCAUUUGAGGCACUUAGAATT against 6430556C10Rik", "z-score": "inactive: 1.19"},
      {"sequence": "GGACUGGUAGUUCUGAUUUTT against Ppm1g", "z-score": "inactive: 0.67"},
      {"sequence": "GCUACUGAGAACAUAAACCTT against Hoxd4", "z-score": "inactive: 0.226"},
      {"sequence": "GGAGCCCAUCAAGUAUGGUTT against 6030441F14Rik", "z-score": "inactive: -0.78"},
      {"sequence": "GAAAGAAUCUAGAAAAGUGTT against Sprrl7", "z-score": "inactive: -0.296"},
      {"sequence": "GCUCGUUUACUCUUACACCTT against Ebaf", "z-score": "inactive: 0.87"},
      {"sequence": "GGACCUUCGAAGUGCUAUGTT against Apbb1", "z-score": "inactive: -0.134"},
      {"sequence": "CUUACGAUACAUAAGAGAATT against Zfp457", "z-score": "inactive: 0.984"},
      {"sequence": "GGGCCAGACUCCAUACUAUTT against Arid1a", "z-score": "inactive: -0.692"},
      {"sequence": "GGGUGAGAAUGACCACUUUTT against Kcnq2", "z-score": "inactive: -1.43"},
      {"sequence": "CCCACAUAAGCGAAUCUCUTT against Cdk4", "z-score": "inactive: 0.72"},
      {"sequence": "CGAGGACUCAAUAGUAGCCTT against MGC59495", "z-score": "inactive: 2.68"},
      {"sequence": "GGCAAUCUGCACUUUAUACTT against Pank2", "z-score": "inactive: 0.397"},
      {"sequence": "GCAGAUCCAAUCAAAUCUCTT against Ly86", "z-score": "inactive: 0.268"},
      {"sequence": "GGCAGGCCUCAGUUGAGAUTT against Pycrl", "z-score": "inactive: 0.572"},
      {"sequence": "GGAAAUUCCAUGUAUGACUTT against Tm7sf2", "z-score": "inactive: -0.765"},
      {"sequence": "GGAGAAAUCAUCACAGUUATT against Snx9", "z-score": "inactive: -0.624"},
      {"sequence": "GGAUGGACAUUUUGUCUUCTT against Mmp15", "z-score": "inactive: 0.459"},
      {"sequence": "GGUCACGAUUCUGUCAGACTT against Catnal1", "z-score": "inactive: -0.264"},
      {"sequence": "GGAAAAGGACCUUAAAUUUTT against 2810441O16Rik", "z-score": "inactive: 0.153"},
      {"sequence": "GGAGAGAAUAUCACAAUUGTT against Tas2r102", "z-score": "inactive: -1.34"}
    ]}
  ]
}
